The results in this text go back to the supplement of paper PMC3682954.

The test has as its system RAW 264.7. Put plainly: HMGB1-induced TNF-alpha production relative to HMGB1-stimulated control; higher = more TNF-alpha secretion (less inhibition). Conditions: stimulus: HMGB1 5 ug/ml, 18 h.
Where [1] appears, read: compound concentration: 1 ug/ml.

Structures can show the parent of a compound that is named as a salt. ± gives the standard deviation of the averaged measurements. The list shows a part of the results. Single values are uncertain, as repeats are few or missing.

Take `CCC(=O)OCC(=O)[C@@]1(OC(=O)CC)[C@@H](C)C[C@H]2[C@@H]3CCC4=CC(=O)C=C[C@]4(C)[C@@]3(Cl)[C@@H](O)C[C@@]21C`: the “HMGB1-induced TNF-alpha production” value (compound concentration: 3 uM) was 43.3%.
The same measure, in the same setting: under `COCC(=O)O[C@]1(CCN(C)CCCc2nc3ccccc3[nH]2)CCc2cc(F)ccc2[C@@H]1C(C)C` [Mibefradil dihydrochloride] stands 116%; under `CCN(CC)Cc1cc(Nc2ccnc3cc(Cl)ccc23)ccc1O` [Amodiaquin dihydrochloride dihydrate], 54.5%.
On the same count and under the same terms, under `CCN(CC)Cc1cc(Nc2ccnc3cc(Cl)ccc23)ccc1O` stands 79.1%; under `CCN(CC)CCNC(=O)COc1ccc(OC)cc1` [Mefexamide hydrochloride], 92.6%; under `CCN(CC)CCNC(=O)COc1ccc(OC)cc1`, 102%.
Still for that read-out and setting: under `Cc1nc2n(c(=O)c1CCN1CCC(c3noc4cc(F)ccc34)CC1)CCCC2O` (configuration not stated) [Paliperidone] stands 87.7%; under `CC(=O)OCC1=C(C(=O)O)N2C(=O)[C@@H](NC(=O)Cc3cccs3)[C@H]2SC1` [Cephalothin sodium salt], 71.7%.
On to `CC(=O)OCC1=C(C(=O)O)N2C(=O)[C@@H](NC(=O)Cc3cccs3)[C@H]2SC1`, for which the “HMGB1-induced TNF-alpha production” value (compound concentration: 3 uM) was found to be 83.4%.
The same measure, in the same setting: to `CC(=O)OCC1=C(C(=O)O)N2C(=O)[C@@H](NC(=O)Cc3cccs3)[C@H]2SC1` [Cephalothin sodium] belongs 78.4%; to `CC(C)(C)NCC(O)c1ccc(O)c(CO)c1` (racemic), 37.3%.
Still for that read-out and setting: under `CCOc1ccc(NC(=O)CC(C)O)cc1` (configuration not stated) stands 79.8%.
Same read-out and setting: to `Clc1ccc(C(Cn2ccnc2)OCc2csc3c(Cl)cccc23)c(Cl)c1` (configuration not stated) [Sertaconazole nitrate] belongs 114%; to `Clc1ccc(C(Cn2ccnc2)OCc2csc3c(Cl)cccc23)c(Cl)c1` (configuration not stated) [Sertaconazole], 118%.
With `COc1c(O)cc2oc3cc(O)c(CC=C(C)C)c(O)c3c(=O)c2c1CC=C(C)C` [Mangostin], the “HMGB1-induced TNF-alpha production” value under setting [1] is 52.1%.
Regarding `C=CCCCCCCCCC(=O)O`, for the setting “compound concentration: 3 uM”, the “HMGB1-induced TNF-alpha production” value turned out to be 85.5%.
For `CC1(C)S[C@@H]2[C@H](NC(=O)Cc3ccccc3)C(=O)N2[C@H]1C(=O)O` [Benzathine benzylpenicillin], the “HMGB1-induced TNF-alpha production” value (compound concentration: 3 uM) came to 88.5%.
On to `CC1(C)S[C@@H]2[C@H](NC(=O)Cc3ccccc3)C(=O)N2[C@H]1C(=O)O`, for which the “HMGB1-induced TNF-alpha production” value (compound concentration: 3 uM) was 118%.
On the same count and under the same terms, to `CC1(C)S[C@@H]2[C@H](NC(=O)Cc3ccccc3)C(=O)N2[C@H]1C(=O)O` [Benzylpenicillin sodium] belongs 121%; to `CCCCc1nc(Cl)c(CO)n1Cc1ccc(-c2ccccc2-c2nnn[nH]2)cc1`, 79.6%; to `CCCCc1nc(Cl)c(CO)n1Cc1ccc(-c2ccccc2-c2nnn[nH]2)cc1` [Losartan], 111%.
On the same count and under the same terms, to `CCCCc1nc(Cl)c(CO)n1Cc1ccc(-c2ccccc2-c2nnn[nH]2)cc1` [Losartan potassium] belongs 89.5%; to `CCCCc1nc(Cl)c(CO)n1Cc1ccc(-c2ccccc2-c2nnn[nH]2)cc1` [LOSARTAN Potassium], 120%; to `O=C1CCC(N2C(=O)c3ccccc3C2=O)C(=O)N1` (configuration not stated) [Thalidomide], 98 ± 14%.
The same measure, in the same setting: under `O=C1CCC(N2C(=O)c3ccccc3C2=O)C(=O)N1` (configuration not stated) stands 81.1%.
Regarding `CC1(C)CC[C@]2(C(=O)O)CC[C@]3(C)C(=CC[C@@H]4[C@@]5(C)CC[C@H](O)C(C)(C)[C@@H]5[C@H](O)C[C@]43C)[C@@H]2C1` [Sumaresinolic acid], under setting [1], the “HMGB1-induced TNF-alpha production” value was 77.2%.
Consider `O=C1NCCN1CCN1CCC(c2cn(-c3ccc(F)cc3)c3ccc(Cl)cc23)CC1` [Sertindole], for which, where the note is “compound concentration: 3 uM”, the “HMGB1-induced TNF-alpha production” value is 96.8%.
`O=C1OC(CN2CCOCC2)CN1/N=C/c1ccc([N+](=O)[O-])o1` (configuration not stated) [Furaltadone hydrochloride]: the “HMGB1-induced TNF-alpha production” value (compound concentration: 3 uM) came to 96.1%.
With `O=C1OC(CN2CCOCC2)CN1/N=C/c1ccc([N+](=O)[O-])o1` (configuration not stated), the “HMGB1-induced TNF-alpha production” value (compound concentration: 3 uM) was 73%.
On the same count and under the same terms, to `CC[n+]1c(-c2ccccc2)c2cc(N)ccc2c2ccc(N)cc21` belongs 69.2%.
Same read-out and setting: to `Cc1ccsc1C(=CCCN1CCC[C@@H](C(=O)O)C1)c1sccc1C` belongs 121%.
On the same count and under the same terms, to `CNCCCN1c2ccccc2CCc2ccccc21` [Desipramine hydrochloride] belongs 69.1 ± 1.1%; to `CNCCCN1c2ccccc2CCc2ccccc21`, 69.8%; to `O=C(O)CCNC(=O)c1ccc(/N=N/c2ccc(O)c(C(=O)O)c2)cc1`, 89.4%.
`O=C(O)CCNC(=O)c1ccc(/N=N/c2ccc(O)c(C(=O)O)c2)cc1` [Balsalazide Sodium]: the “HMGB1-induced TNF-alpha production” value (compound concentration: 3 uM) was 105%.
Regarding `C[n+]1ccccc1/C=N/O`, for the setting “compound concentration: 3 uM”, the “HMGB1-induced TNF-alpha production” value was 84.8%.
On to `C[n+]1ccccc1/C=N/O` [Pralidoxime chloride], for which the “HMGB1-induced TNF-alpha production” value (compound concentration: 3 uM) was found to be 105%.
The same measure, in the same setting: to `CCOc1cc(N)c(Cl)cc1C(=O)NCC1CN(Cc2ccc(F)cc2)CCO1` (configuration not stated) belongs 94.9%; to `CCC(C)n1ncn(-c2ccc(N3CCN(c4ccc(OCC5COC(Cn6cncn6)(c6ccc(Cl)cc6Cl)O5)cc4)CC3)cc2)c1=O` (configuration not stated), 111 ± 46%; to `CCC(C)n1ncn(-c2ccc(N3CCN(c4ccc(OCC5COC(Cn6cncn6)(c6ccc(Cl)cc6Cl)O5)cc4)CC3)cc2)c1=O` (configuration not stated) [Itraconazole], 115 ± 43%.
Still for that read-out and setting: to `Cc1cccc(Nc2ccccc2C(=O)O)c1C` belongs 102%; to `Cc1cccc(Nc2ccccc2C(=O)O)c1C` [Mefenamic acid], 86.1 ± 17%.
